Laboratory results published in PubChem BioAssay AID248 (DTP/NCI, 2004).
The list is a part of this screen's results and no random one: it is rich in T/C values a quarter to a half above the control, in often repeated tests (any T/C) and in doses without a T/C. Further doses and runs are listed elsewhere. T/C: endpoint of the treated group in % of that of the vehicle group. Some entries give survivors of the animals treated and no T/C: the source holds a T/C of zero for them, seemingly a mark for toxic or unscored doses. Some doses without a T/C left all or most animals alive at the check, yet need not have been tolerated: the source hardly ever lists a survival T/C far under the control, and the zero likely stands for such cases as well. Survivors were counted at the toxicity check, usually on the fifth day, unless a day is given; later deaths do not show. Schedule codes are those of the source, taken here to give the interval after Q, in days (D) or hours (H), and the number of doses after X. Some schedules carry Z or #; the key to these is not given. Where survival is the endpoint, this PubChem deposit counts one and a half times the control or more as active, and values a quarter to a half above the control carry no call in these data; other NCI protocols may use other cut-offs.

System: L1210 leukemia ip in BDF1 mice, survival T/C
Assay: NCI In Vivo Anticancer Drug Screen. Data for tumor model L1210 Leukemia (intraperitoneal) in B6D2F1 (BDF1) mice
Conditions: T/C endpoint: mean survival time, higher T/C = longer survival
[1] = dose: 50.0 mg/kg/injection, schedule: Q01DX009 (ip), vehicle: Klucel (hydroxypropylcellulose) (HPC)
[2] = dose: 400.0 mg/kg/injection, schedule: Q04DX003 (ip), vehicle: Klucel (hydroxypropylcellulose) (HPC)

With O=[N+]([O-])c1cc(Cl)c(O)c(Cl)c1Cl the survivor count (dose: 200.0 mg/kg/injection, schedule: Q04DX003 (ip), vehicle: acetone) was 4 of 6, the survivor count (dose: 335.0 mg/kg/injection, schedule: Q01DX009 (ip), vehicle: saline) was 2 of 6 and the survivor count (dose: 400.0 mg/kg/injection, schedule: Q01DX001 (ip), vehicle: acetone) was 2 of 6.
In the case of Cc1ccc(N2CCNCC2)cc1Cl, the survivor count (dose: 100.0 mg/kg/injection, schedule: Q04DX003 (ip), vehicle: saline) is reported as 6 of 6 and the survivor count (dose: 200.0 mg/kg/injection, schedule: Q04DX003 (ip), vehicle: saline) is reported as 1 of 6.
CN(C)C=NC1CCC(C(C)(C)C)CC1 (stereo not given) was tested, and the survivor count [1] was 3 of 6, the survivor count (dose: 100.0 mg/kg/injection, schedule: Q04DX003 (ip), vehicle: Klucel (hydroxypropylcellulose) (HPC)) was 0 of 6 and the survivor count (dose: 200.0 mg/kg/injection, schedule: Q04DX003 (ip), vehicle: Klucel (hydroxypropylcellulose) (HPC)) was 0 of 6. The survivor count [2] was 0 of 6.
In the case of O=C(Nc1ccc(F)c(Cl)c1)Nc1ccc(Cl)c(C(F)(F)F)c1, the survivor count (dose: 400.0 mg/kg/injection, schedule: Q01DX009 (ip), vehicle: saline with Tween-80) is reported as 0 of 6.
For O=C1c2cscc2Cc2ccsc21, the survivor count (dose: 400.0 mg/kg/injection, schedule: Q01DX001 (ip), vehicle: saline with Tween-80) was 0 of 3.
O=C(O)c1cccc(F)c1C(=O)c1ccc2ccccc2c1 (tested in a mixture with another compound) was tested, and the survivor count [2] was 0 of 6.
For COc1ccccc1-n1c(O)c(N=Nc2ccc(Cl)cc2)c(=O)n(-c2ccc(Br)cc2)c1=S, the survivor count (dose: 400.0 mg/kg/injection, schedule: Q01DX001 (ip), vehicle: Klucel (hydroxypropylcellulose) (HPC)) was 3 of 6.
In the case of Cc1ccc(CNCC(=O)O)cc1, the survivor count (dose: 400.0 mg/kg/injection, schedule: Q04DX003 (ip), vehicle: water) is reported as 0 of 6.
In the case of O=c1[nH]cnc2nc(SCc3cccc([N+](=O)[O-])c3)[nH]c12, the survivor count (dose: 75.0 mg/kg/injection, schedule: Q01DX001 (ip), vehicle: other) is reported as 6 of 6.
O=C(NCCCCCCNC(=O)Nc1ccc(C2=NCCCN2)cc1)Nc1ccc(C2=NCCCN2)cc1 was tested, and the survivor count (dose: 50.0 mg/kg/injection, schedule: Q01DX Z (ip), vehicle: carboxymethylcellulose (CMC)) was 0 of 6.
For c1ccc(COC2CN3CCC2CC3)cc1 (stereo not given), the survivor count (dose: 200.0 mg/kg/injection, schedule: Q04DX003 (ip), vehicle: saline with Tween-80) was 2 of 6 and the survivor count (dose: 400.0 mg/kg/injection, schedule: Q04DX003 (ip), vehicle: saline with Tween-80) was 0 of 6.
In the case of CCOC(=O)C1c2cc3c(cc2C(c2cc(OC)c(OC)c(OC)c2)C2C(=O)OCC12)OCO3 (stereo not given), the T/C (dose: 6.0 mg/kg/injection, schedule: Q01DX009 (ip), vehicle: Klucel (hydroxypropylcellulose) (HPC)) is reported as 141 % of control, the survivor count (dose: 12.0 mg/kg/injection, schedule: Q01DX009 (ip), vehicle: Klucel (hydroxypropylcellulose) (HPC)) is reported as 6 of 6 and the survivor count (dose: 25.0 mg/kg/injection, schedule: Q01DX009 (ip), vehicle: Klucel (hydroxypropylcellulose) (HPC)) is reported as 1 of 6. For the same compound, the survivor count [1] was 0 of 6, the survivor count (dose: 100.0 mg/kg/injection, schedule: Q01DX009 (ip), vehicle: Klucel (hydroxypropylcellulose) (HPC)) was 5 of 6 and the survivor count (dose: 200.0 mg/kg/injection, schedule: Q01DX009 (ip), vehicle: Klucel (hydroxypropylcellulose) (HPC)) was 0 of 6. The survivor count (dose: 400.0 mg/kg/injection, schedule: Q01DX009 (ip), vehicle: Klucel (hydroxypropylcellulose) (HPC)) was 0 of 6.
